From article PMC4199759 come the findings set out here.

No constants are given. Whether binding was seen depends on the method and setting. A result given as binding can be weak or reduced; the word gives no strength. For part of these data: In cells and extracts the contact can be indirect. For part of these data: Where a sequence is shown, tags or fusion partners need not be part of it.

Sequences and labels used below:
B1: Scs2-derived Int/TM construct (Δ1-126), split-ubiquitin prey (domain or fragment, UniProt P40075 127-244)
chain: ISPDVHPAQNQNIQENKETVEPVVQDSEPKEVPAVVNEKEVPAEPETQPPVQVKKEEVPPVVQKTVPHENEKQTSNSTPAPQNQIKEAATVPAENESSSMGIFILVALLILVLGWFYR
B2: Osh7p, split-ubiquitin prey (protein, UniProt P38755 1-437)
chain: MALNKLKNIPSLTNSSHSSINGIASNAANSKPSGADTDDIDENDESGQSILLNIISQLKPGCDLSRITLPTFILEKKSMLERITNQLQFPDVLLEAHSNKDGLQRFVKVVAWYLAGWHIGPRAVKKPLNPILGEHFTAYWDLPNKQQAFYIAEQTSHHPPESAYFYMIPESNIRVDGVVVPKSKFLGNSSAAMMEGLTVLQFLDIKDANGKPEKYTLSQPNVYARGILFGKMRIELGDHMVIMGPKYQVDIEFKTKGFISGTYDAIEGTIKDYDGKEYYQISGKWNDIMYIKDLREKSSKKTVLFDTHQHFPLAPKVRPLEEQGEYESRRLWKKVTDALAVRDHEVATEEKFQIENRQRELAKKRAEDGVEFHSKLFRRAEPGEDLDYYIYKHIPEGTDKHEEQIRSILETAPILPGQTFTEKFSIPAYKKHGIQKN
B3: Osh3p, split-ubiquitin prey (protein, UniProt P38713 1-996)
chain: METIDIQNRSFVVRWVKCGRGDVINYQIKPLKKSIEVGIYKKLKSSVDDHASAVHIAPDTKTLLDYTTKSLLHKGSSSNIEEHHRRSSQHSHSSSNGSDNKRKERSYSSLSISGIQQQSQEIPLREKLSASGFTLVKRVGNVSGNTMVQGDLEVKDTDYYYAFILDNSSSKNAKKKILFNASVINGDNQSMISTRSTPPARPTALSRTSTQQDMLFRVGQGRYLQGYLLKKRRKRLQGFKKRFFTLDFRYGTLSYYLNDHNQTCRGEIVISLSSVSANKKDKIIIIDSGMEVWVLKATTKENWQSWVDALQTCFDDQFEDKDTSTLEENPDILDDDKEVINKSSPQDHDHLTPTATTKSALSHRQHTQKDMDDIYVPLPSESYATFSMNLRLIQQRLEQCKKDSLSYKPTTLHQRSEGLNGTHSSSSVFTNNRVSSFNHSSSGMTSSDSLASEEVPSNKTYIEHALYNQLADLEVFVSRFVTQGEVLFKDHQILCKKAKDTRVSLTSYLSENDEFFDAEEEISRGVIILPDTEDDINNIVEETPLLGKSDQNEFTKEVQLSGSEQIASSSVESYTTNDENHSRKHLKNRHKNRRRGHPHHQKTKSAQSSTETFTSKDLFALSYPKSVTRRNDIPEAAASPPSLLSFLRKNVGKDLSSIAMPVTSNEPISILQLISETFEYAPLLTKATQRPDPITFVSAFAISFLSIYRDKTRTLRKPFNPLLAETFELIREDMGFRLISEKVSHRPPVFAFFAEHLDWECSYTVTPSQKFWGKSIELNNEGILRLKFKTTGELFEWTQPTTILKNLIAGERYMEPVNEFEVHSSKGDKSHILFDKAGMFSGRSEGFKVSIIPPPSSNRKKETLAGKWTQSLANETTHETIWEVGDLVSNPKKKYGFTKFTANLNEITEIEKGNLPPTDSRLRPDIRAYEEGNVDKAEEWKLKLEQLQRERRNKGQDVEPKYFEKVSKNEWKYITGPKSYWERRKKHDWSDISQLW
B4: Osh6p, split-ubiquitin prey (protein, UniProt Q02201 1-448)
chain: MGSKKLTVGSDSHRLSKSSFSSNKSSHSATKDQPIDTDDIDEDDESGHNIILNIISQLRPGCDLTRITLPTFILEKKSMLERVTNQLQFPEFLLQAHSEKDPLKRFLYVMKWYLAGWHIAPKAVKKPLNPVLGEYFTAYWDLPNKQQAYYISEQTSHHPPECAYFYMIPESSIRVDGVVIPKSRFLGNSSAAMMDGSTVLQFLDIKDGNGKPEKYVLTQPNVYVRGILFGKMRIELGDHMIIKSPNFQADIEFKTKGYVFGTYDAIEGTVKDYDGNAYYEISGKWNDVMYLKDLKQPRSSPKVFLDTHKESPLRPKVRPLSEQGEYESRKLWKKVTDALAVRNHPVATEEKFQIEDHQRQLAKKRIEDGVEFHPKLFRRSKPGEDLDYCIYKNIPVDEDPEKQIRSILQIAPILPGQQFTDKFFIPAFEKIKSQKKMIENEKQNPAKQ
B5: Scs2p VAP protein, split-ubiquitin prey (protein, UniProt P40075 1-244)
chain: MSAVEISPDVLVYKSPLTEQSTEYASISNNSDQTIAFKVKTTAPKFYCVRPNAAVVAPGETIQVQVIFLGLTEEPAADFKCRDKFLVITLPSPYDLNGKAVADVWSDLEAEFKQQAISKKIKVKYLISPDVHPAQNQNIQENKETVEPVVQDSEPKEVPAVVNEKEVPAEPETQPPVQVKKEEVPPVVQKTVPHENEKQTSNSTPAPQNQIKEAATVPAENESSSMGIFILVALLILVLGWFYR
B6: C-terminal half of Venus YFP (aa 155-236) fused to Osh6p (protein, UniProt Q02201 1-448)
chain: B4 chain
B7: recombinant GST-His6-Osh7 protein (protein, UniProt P38755 1-437)
chain: B2 chain
B8: recombinant GST-His6-Osh3 protein (protein, UniProt P38713 1-996)
chain: B3 chain
B9: recombinant GST-His6-Osh6 protein (protein, UniProt Q02201 1-448)
chain: B4 chain

One experiment deals with p33 replication protein, split-ubiquitin bait (plasmid pGAD-BT2-N-His33) (Tomato bushy stunt virus (TBSV)). In words: two-hybrid; yeast membrane two-hybrid (split-ubiquitin) assay; bait p33, NubG preys; yeast NMY51 (scs2Δ yeast in Figure 5A); growth on TLHA- plates at 30°C.
As for B1, the binding result was “binds”. On to B2, for which the binding result is given as “binds”.

In the case of B3, the binding entry is “binds”.

Turning to B4, the binding entry is “binds”. In the case of B5, the binding entry is listed as “binds”.

The target of the next experiment is N-terminal portion of Venus (aa 1-155) fused to the CIRV p36 replication protein (Carnation Italian ringspot virus (CIRV)). In words: split reporter; BiFC in yeast with the N-terminal (aa 1-155) and C-terminal (aa 155-236) portions of Venus; confocal laser microscopy after 24 hours at 29°C in galactose medium.
For B6, the binding result is “binds”.

In a further experiment the target is MBP-tagged TBSV p33 protein (the C-terminal portion) (Tomato bushy stunt virus (TBSV)). In words: pull-down; MBP-p33 (C-terminal portion) captured on amylose columns; lysates of E. coli expressing GST-His6-Osh proteins passed through; elution with maltose; Western blot with anti-His antibody; only the target purified.
As for B7, the binding entry is recorded as “binds”. Same read-out and setting: the entry for B8 is “binds”; for B9 it is “binds”.
